Data set [1] addresses DREB2A (Arabidopsis thaliana) (UniProt O82132). Put plainly: activity in cells. To be noted: GUS transactivation vs empty effector, T87 protoplasts; DRE reporter built as in cited Liu et al 1998; protein in cells.
Data set [2] addresses DREB1A (Arabidopsis thaliana) (UniProt Q9M0L0). Briefly: activity in cells. To be noted: GUS activity increased in Arabidopsis leaf protoplasts; protein in cells.
For data set [3], the target named is DREB2A (Arabidopsis thaliana) (UniProt O82132). Briefly: one hybrid. To be noted: GAL4 AD-cDNA fusion in yeast YM4271; protein in cells.
Data set [4] has as its target DREB1A (Arabidopsis thaliana) (UniProt Q9M0L0). Put plainly: one hybrid. To be noted: GAL4 AD-cDNA fusion in yeast YM4271; protein in cells.

Amino acid sequences for entries named in this document (tags omitted). A change or cut given only in a name is not applied to a line headed by its entry.
UniProt O82132: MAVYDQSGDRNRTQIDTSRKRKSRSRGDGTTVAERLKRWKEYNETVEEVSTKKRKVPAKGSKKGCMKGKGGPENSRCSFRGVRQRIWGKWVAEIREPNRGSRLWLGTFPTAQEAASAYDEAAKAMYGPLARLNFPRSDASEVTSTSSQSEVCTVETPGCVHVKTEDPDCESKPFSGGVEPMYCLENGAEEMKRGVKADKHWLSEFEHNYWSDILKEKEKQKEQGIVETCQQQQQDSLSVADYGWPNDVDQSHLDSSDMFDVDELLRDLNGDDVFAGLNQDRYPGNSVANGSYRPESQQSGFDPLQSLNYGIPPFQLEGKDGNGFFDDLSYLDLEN
UniProt Q9M0L0: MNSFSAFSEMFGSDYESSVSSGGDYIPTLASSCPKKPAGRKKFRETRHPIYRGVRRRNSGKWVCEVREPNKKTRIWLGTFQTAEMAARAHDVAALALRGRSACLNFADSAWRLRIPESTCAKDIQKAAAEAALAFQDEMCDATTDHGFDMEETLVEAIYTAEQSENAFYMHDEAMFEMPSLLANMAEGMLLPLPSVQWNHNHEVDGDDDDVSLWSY

One sequence from patent US20060015973 can be followed below.

For some of these results: Where cells or extracts were used, other partners may take part.

Take “CAGTTTGAAAGAAAAGGGAAAAAAAGAAAAAATAAATAAAAGATATACTACCGACATGAGTTCCAAAAAGC (double strand)”: the “activity on this sequence” value in data set [1] and in data set [2] was “active” each time. Further, the binding result in data set [3] and in data set [4] was “binds” in each case.
